Data from patent US20230047313A1, “TREATING HEART DISEASE IN MUSCULAR DYSTROPHY PATIENTS” (Children`s Medical Center Corporation, priority 2019, published 2023).

Columns and labels:
Flag-tagged CIB1 = assay: co-immunoprecipitation, tagged proteins in transfected HEK293 cells (FIG. 5C)
Flag-tagged CnA [1] = assay: as above
Flag-tagged CnA [2] = assay: co-immunoprecipitation (FIG. 5C: Myc-tagged CIP with Flag-tagged CnA)
[3] = target: Flag-tagged C-terminal of dystrophin (DMD-C); assay: co-immunoprecipitation, tagged proteins in transfected HEK293 cells (FIG. 5B)
[4] = target: Flag-tagged N-terminal of dystrophin (DMD-N); assay: as above
Flag-tagged Lmo7 = assay: as above
[5] = target: Flag-tagged C-terminal of dystrophin (DMD-C); assay: co-immunoprecipitation (FIG. 5B: Myc-tagged CIP with Flag-tagged DMD-C); the sentence says 'dystrophin'

B1: Myc-tagged CIP (protein, UniProt Q5FW52-1 1-269, looked up, not shown: small tags and cut ends)
chain: MEFGKHEPGSSLKRNKNLEEGVTFEYSDHMTFSSESKQERVQRILDYPSEVSGRNSQQKEFNTKEPQGMQKGDLFKAEYVFIVDSDGEDEATCRQGEQGPPGGPGNIATRPKSLAISSSLASDVVRPKVRGADLKTSSHPEIPHGIAPQQKHGLALDEPARTESNSKASVLDLPVEHSSDSPSRPPQTMLGSETIKTPTTHPRAAGRETKYANLSSSSSTASESQLTKPGVIRPVPVKSKLLLRKDEEVYEPNPFSKYLEDNSGLFSEQ
With B1 the binding (Flag-tagged CIB1) was “no binding”, the binding (Flag-tagged CnA [1]) was “binds” and the binding (Flag-tagged CnA [2]) was “binds”. For the same binder, the binding [3] was “binds”, the binding [4] was “no binding” and the binding (Flag-tagged Lmo7) was “binds”. The binding [5] was “binds”.

Results are given in words; binding and its absence hold for the method and conditions named. Binding seen in cells or lysates may run through a third protein. For some of these results: Binding calls can cover weak binding; strength is not graded here. Tags and fused reporters may be left off the sequences shown.
